Measured values as given in patent US11311531B2, “Method for producing benzazoloquinolium (BQs) salts and using the biological activity of the composition” (Sistema Universitario Ana G. Mendez, Inc., priority 2014, dated 2022).

System: Toledo cells
Assay: Fluorescent detection of metabolically active cells under hypoxic environment
Format: cell-based, human
Settings: hypoxic conditions, 2, 12 and 24 hours

7-benzyl-3-nitrobenzimidazolo[3,2-a]quinolinium chloride [NBQ-48]
transformation into fluorescent metabolite: transform the NBQ48 into a florescent metabolite
